Reference: the supplement of paper PMC9015667
Structures can show the parent of a compound that is named as a salt. This is one part of the list. Most values come without repeats; read them as rough.

What was measured:
Experiment in all cases: reduction in cell viability relative to untreated/vehicle; higher = more growth inhibition
Conditions in all cases: 200 nM; 72 h
[1] = system: M229P (parental melanoma line)
[2] = system: M229R (matched melanoma line resistant to BRAF inhibitors)
[3] = system: M238P (parental melanoma line)
[4] = system: M238R (matched melanoma line resistant to BRAF inhibitors)
[5] = system: M249P (parental melanoma line)
[6] = system: M249R (matched melanoma line resistant to BRAF inhibitors)
[7] = system: UACC62P (parental melanoma line)
[8] = system: UACC62R (matched melanoma line resistant to BRAF inhibitors)

Structure (SMILES)	reduction in cell viability [1]	reduction in cell viability [2]	reduction in cell viability [3]	reduction in cell viability [4]	reduction in cell viability [5]	reduction in cell viability [6]	reduction in cell viability [7]	reduction in cell viability [8]
c1ccc2c(-c3cnn4cc(-c5ccc(N6CCNCC6)cc5)cnc34)ccnc2c1	< 0%	< 0%	< 0%	< 0%	< 0%	< 0%	< 0%	< 0%
CN(C)Cc1cccc(N=C(c2ccccc2)c2c(O)[nH]c3cc(C(=O)N(C)C)ccc23)c1	< 0%	< 0%	< 0%	< 0%	< 0%	< 0%	< 0%	2.92%
N=C1N[C@H]2[C@H](CS[C@H]2CCCCC(=O)O)N1 [2-Iminobiotin]	< 0%	< 0%	< 0%	< 0%	< 0%	< 0%	3.37%	< 0%
CC[C@H]1OC(=O)[C@H](C)[C@@H](O[C@H]2C[C@@](C)(OC)[C@@H](O)[C@H](C)O2)[C@H](C)[C@@H](O[C@@H]2O[C@H](C)C[C@H](N(C)C)[C@H]2O)[C@](C)(O)C[C@@H](C)/C(=N\OCOCCOC)[C@H](C)[C@@H](O)[C@]1(C)O [Roxithromycin]	< 0%	< 0%	< 0%	< 0%	< 0%	< 0%	< 0%	< 0%
COc1cc(Nc2ncc(F)c(Nc3ccc4c(n3)N(COP(=O)(O)O)C(=O)C(C)(C)O4)n2)cc(OC)c1OC [Fostamatinib disodium]	< 0%	< 0%	< 0%	< 0%	< 0%	1.58%	< 0%	< 0%
CCC(C)SSc1ncc[nH]1 (centres undefined)	< 0%	13.8%	< 0%	< 0%	< 0%	< 0%	< 0%	< 0%
S=C(NCc1ccc2c(c1)OCO2)N1CCN(c2ncnc3c2oc2ccccc23)CC1 [Amuvatinib]	< 0%	< 0%	< 0%	< 0%	< 0%	< 0%	18.1%	16.2%
O=C(O)c1ccc(O)c2ncc(N3CCOCC3)cc12	< 0%	< 0%	< 0%	< 0%	< 0%	< 0%	< 0%	< 0%
Clc1ccc(C(Cn2ccnc2)OCc2c(Cl)cccc2Cl)c(Cl)c1 (centres undefined) [Isoconazole nitrate]	< 0%	< 0%	< 0%	< 0%	< 0%	< 0%	< 0%	< 0%
O=S(=O)(N=Cc1c(O)ccc2ccccc12)c1cccs1	< 0%	< 0%	< 0%	< 0%	< 0%	< 0%	4.98%	< 0%
CC(C)Oc1cc(Nc2nc(N[C@@H](C)c3ccc(F)cn3)ncc2Cl)n[nH]1	< 0%	< 0%	< 0%	< 0%	< 0%	< 0%	< 0%	< 0%
C=C(C)[C@@H]1CC[C@]2(C)CC[C@]3(C)[C@H](CC[C@@H]4[C@@]5(C)CC[C@H](O)C(C)(C)[C@@H]5CC[C@]43C)[C@@H]12 [Lupeol]	< 0%	< 0%	< 0%	< 0%	< 0%	2.23%	< 0%	< 0%
COc1cc(N2CCC(C(N)=O)CC2)ccc1Nc1nc(N)c(Cl)c(Nc2ccccc2S(=O)(=O)C(C)C)n1	< 0%	< 0%	< 0%	< 0%	< 0%	< 0%	< 0%	< 0%
Nc1ccc(C(=O)c2cc3c(ccc4ccccc43)[nH]2)cc1	3.64%	24.9%	19.4%	< 0%	10.7%	11%	16.2%	43.9%
CC1CNc2c(cccc2S(=O)(=O)N[C@@H](CCCNC(=N)N)C(=O)N2CC[C@@H](C)C[C@@H]2C(=O)O)C1 (some centres undefined) [Argatroban]	< 0%	< 0%	< 0%	< 0%	< 0%	< 0%	4.09%	< 0%
c1ccc(-c2oc3ncnc(NC[C@@H]4CCCO4)c3c2-c2ccccc2)cc1	< 0%	< 0%	< 0%	< 0%	< 0%	13%	3.83%	< 0%
CC/C(=C(\c1ccc(O)cc1)c1ccc(OCCNC)cc1)c1ccccc1 [Endoxifen]	< 0%	< 0%	< 0%	< 0%	< 0%	< 0%	5.82%	< 0%
COc1ccc(-c2ccc3ncc4c(c3c2)n(-c2ccc(N3CCNCC3)c(C(F)(F)F)c2)c(=O)n4C)cn1	91.7%	94.5%	90.4%	93.2%	91.4%	91.9%	91.2%	79.4%
COC1=C(OC)C(=O)C(CCCCCCCCCCO)=C(C)C1=O [Idebenone]	< 0%	< 0%	< 0%	< 0%	< 0%	< 0%	< 0%	< 0%
Cc1ccc([C@@H]2O[C@H](CO)[C@@H](O)[C@H](O)[C@H]2O)cc1Cc1ccc(-c2ccc(F)cc2)s1 [Canagliflozin]	< 0%	< 0%	< 0%	< 0%	< 0%	< 0%	< 0%	< 0%
NC(=O)Nc1cc(-c2cccc(F)c2)sc1C(=O)N[C@H]1CCCNC1	45.7%	87.2%	69.1%	44.2%	23%	42.5%	36.9%	76%
Cn1c(=O)c(F)c(Nc2ccc(I)cc2F)c2c(=O)n(C[C@@H](O)CO)cnc21	35%	11.8%	34.3%	< 0%	79.6%	67%	62.2%	39.9%

Three neighbouring compounds out of the list so far:
Structure (SMILES)	reduction in cell viability [1]	reduction in cell viability [2]	reduction in cell viability [3]	reduction in cell viability [4]	reduction in cell viability [5]	reduction in cell viability [6]	reduction in cell viability [7]	reduction in cell viability [8]
CN(C)Cc1cccc(N=C(c2ccccc2)c2c(O)[nH]c3cc(C(=O)N(C)C)ccc23)c1	< 0%	< 0%	< 0%	< 0%	< 0%	< 0%	< 0%	2.92%
N=C1N[C@H]2[C@H](CS[C@H]2CCCCC(=O)O)N1 [2-Iminobiotin]	< 0%	< 0%	< 0%	< 0%	< 0%	< 0%	3.37%	< 0%
CC[C@H]1OC(=O)[C@H](C)[C@@H](O[C@H]2C[C@@](C)(OC)[C@@H](O)[C@H](C)O2)[C@H](C)[C@@H](O[C@@H]2O[C@H](C)C[C@H](N(C)C)[C@H]2O)[C@](C)(O)C[C@@H](C)/C(=N\OCOCCOC)[C@H](C)[C@@H](O)[C@]1(C)O [Roxithromycin]	< 0%	< 0%	< 0%	< 0%	< 0%	< 0%	< 0%	< 0%

Further records follow.

Structure (SMILES)	reduction in cell viability [1]	reduction in cell viability [2]	reduction in cell viability [3]	reduction in cell viability [4]	reduction in cell viability [5]	reduction in cell viability [6]	reduction in cell viability [7]	reduction in cell viability [8]
C[C@H]1COc2c(N3CCN(C)CC3)c(F)cc3c(=O)c(C(=O)O)cn1c23 [Levofloxacin]	< 0%	< 0%	2.75%	< 0%	< 0%	< 0%	5.08%	< 0%
O=C(NNC(=O)c1ccc(CNS(=O)(=O)c2ccc(F)c(Cl)c2)cc1)c1ccccc1	< 0%	< 0%	< 0%	< 0%	< 0%	< 0%	2.71%	< 0%
N#CC(c1ccnc(OCc2ccc(CN3CCOCC3)cc2)n1)c1nc2ccccc2s1 (centres undefined)	< 0%	< 0%	< 0%	< 0%	< 0%	< 0%	< 0%	< 0%
CN(C)C(=O)c1ccc(S(=O)(=O)c2ccc(NC(=O)[C@@](C)(O)C(F)(F)F)c(Cl)c2)cc1	< 0%	< 0%	< 0%	< 0%	< 0%	< 0%	< 0%	< 0%
COc1ccc(Cc2ccc(NC(N)=O)cc2)cc1-c1cccc(Cl)c1	< 0%	< 0%	< 0%	< 0%	< 0%	< 0%	< 0%	< 0%
O=C1NC(O)CCN1[C@@H]1O[C@H](CO)[C@@H](O)[C@H]1O (some centres undefined) [Tetrahydrouridine]	< 0%	3.4%	< 0%	< 0%	< 0%	< 0%	< 0%	< 0%
c1cc(-c2sc(-c3ccncc3)c(-c3ccncc3)c2-c2ccncc2)ccn1	< 0%	< 0%	< 0%	< 0%	< 0%	1.23%	< 0%	< 0%
Cc1[nH]c(/C=C2\C(=O)Nc3ccc(S(=O)(=O)N(C)c4cccc(Cl)c4)cc32)c(C)c1C(=O)N1CCN(C)CC1	< 0%	< 0%	< 0%	< 0%	< 0%	< 0%	< 0%	< 0%
CN(C)CCOc1ccc(-c2nc(-c3ccncc3)c(-c3ccc4c(c3)CC/C4=N\O)[nH]2)cc1	14.4%	< 0%	24.4%	< 0%	43.7%	< 0%	59.6%	< 0%
CC(C)c1cc(C(C)C)c(CC(=O)NS(=O)(=O)Oc2c(C(C)C)cccc2C(C)C)c(C(C)C)c1 [Avasimibe]	< 0%	< 0%	< 0%	< 0%	< 0%	< 0%	< 0%	< 0%
S=P(N1CC1)(N1CC1)N1CC1	< 0%	< 0%	< 0%	< 0%	0.1%	< 0%	12.2%	< 0%
C[C@H]1COC2=C1C(=O)C(=O)c1c2ccc2c1CCCC2(C)C [Cryptotanshinone]	< 0%	< 0%	< 0%	< 0%	< 0%	< 0%	< 0%	< 0%
CC(C)(O)CCc1ccc(OCc2cc(-c3cccc(OC(F)F)c3)c3ncccc3c2)cc1	< 0%	< 0%	< 0%	< 0%	< 0%	< 0%	< 0%	< 0%
C[C@]12CC[C@@H]3c4ccc(O)cc4CC[C@H]3[C@@H]1[C@@H](O)[C@@H](O)[C@@H]2O [Estetrol]	< 0%	< 0%	< 0%	< 0%	< 0%	< 0%	< 0%	< 0%
CC1(C)O[C@@H]2C[C@H]3[C@@H]4C[C@H](F)C5=CC(=O)C=C[C@]5(C)[C@@]4(F)[C@@H](O)C[C@]3(C)[C@]2(C(=O)CO)O1 [Fluocinolone acetonide]	< 0%	2.26%	< 0%	< 0%	< 0%	< 0%	< 0%	< 0%
COc1cc2nc(N3CCN(C(=O)C4COc5ccccc5O4)CC3)nc(N)c2cc1OC (centres undefined) [Doxazosin mesylate]	< 0%	7.3%	< 0%	< 0%	< 0%	< 0%	< 0%	< 0%
CCOC(=O)N1c2ccc(C(F)(F)F)cc2[C@@H](N(Cc2cc(C(F)(F)F)cc(C(F)(F)F)c2)C(=O)OC)C[C@H]1CC [Torcetrapib]	< 0%	< 0%	< 0%	< 0%	< 0%	< 0%	< 0%	< 0%
Fc1ccc(Cl)cc1-c1nc(Nc2ccncc2)c2nccnc2n1	< 0%	< 0%	< 0%	< 0%	< 0%	< 0%	1.83%	< 0%
CNC1CCC(N(Cc2cccc(-c3ccncc3)c2)C(=O)c2sc3c(F)ccc(F)c3c2Cl)CC1 (centres undefined)	< 0%	< 0%	< 0%	0.81%	< 0%	< 0%	< 0%	< 0%
CC(C)(C)Cn1c(N)nc2ccc(-c3[nH]c(C(C)(C)C)nc3-c3ccc(F)cc3)nc21	< 0%	< 0%	< 0%	< 0%	< 0%	< 0%	< 0%	9.05%
COc1ccc(-c2cc3nccn3c(Nc3ncccc3C(N)=O)n2)cc1OC	< 0%	< 0%	< 0%	< 0%	< 0%	< 0%	5.78%	< 0%
